Reference: US20200216499A1 (WAKE FOREST UNIVERSITY HEALTH SCIENCES, priority 2015, published 2020)

assay: general procedure: Fmoc solid-phase peptide synthesis; proline pre-loaded 2CT resin; HATU/DIEA; details: whole synthesis

Row | Substance | isolated yield
1 | H-Asp-Arg-ACCA-Tyr-Ile-His-Pro-OH | yield = 63%
2 | H-Asp-Arg-Val-Tyr-ACCA-His-Pro-OH | yield = 64%
3 | H-Asp-Arg-Val-Tyr-Ile-ACCA-Pro-OH | yield = 46%
